Common to all, as to test: affinity purification with mass spectrometry; 3×FLAG- or 13×myc-tagged bait purified from S. pombe cell extract on α-FLAG (M2) or α-myc (9E10) antibody cross-linked to Protein G Dynabeads, 4°C for 3 h, IP buffer (20 mM HEPES pH 7.5, 100 mM NaCl, 5 mM MgCl2, 1 mM EDTA, 10% glycerol, 0.25% Triton X-100, 0.5 mM DTT); LC-MS/MS; Red1-3×FLAG also from iss10Δ, rmn1Δ and Mtl1 knockdown cells

For experiment [1], the target named is T1, Mtl1-3×FLAG (S. pombe) (UniProt O13799).
T1 sequence: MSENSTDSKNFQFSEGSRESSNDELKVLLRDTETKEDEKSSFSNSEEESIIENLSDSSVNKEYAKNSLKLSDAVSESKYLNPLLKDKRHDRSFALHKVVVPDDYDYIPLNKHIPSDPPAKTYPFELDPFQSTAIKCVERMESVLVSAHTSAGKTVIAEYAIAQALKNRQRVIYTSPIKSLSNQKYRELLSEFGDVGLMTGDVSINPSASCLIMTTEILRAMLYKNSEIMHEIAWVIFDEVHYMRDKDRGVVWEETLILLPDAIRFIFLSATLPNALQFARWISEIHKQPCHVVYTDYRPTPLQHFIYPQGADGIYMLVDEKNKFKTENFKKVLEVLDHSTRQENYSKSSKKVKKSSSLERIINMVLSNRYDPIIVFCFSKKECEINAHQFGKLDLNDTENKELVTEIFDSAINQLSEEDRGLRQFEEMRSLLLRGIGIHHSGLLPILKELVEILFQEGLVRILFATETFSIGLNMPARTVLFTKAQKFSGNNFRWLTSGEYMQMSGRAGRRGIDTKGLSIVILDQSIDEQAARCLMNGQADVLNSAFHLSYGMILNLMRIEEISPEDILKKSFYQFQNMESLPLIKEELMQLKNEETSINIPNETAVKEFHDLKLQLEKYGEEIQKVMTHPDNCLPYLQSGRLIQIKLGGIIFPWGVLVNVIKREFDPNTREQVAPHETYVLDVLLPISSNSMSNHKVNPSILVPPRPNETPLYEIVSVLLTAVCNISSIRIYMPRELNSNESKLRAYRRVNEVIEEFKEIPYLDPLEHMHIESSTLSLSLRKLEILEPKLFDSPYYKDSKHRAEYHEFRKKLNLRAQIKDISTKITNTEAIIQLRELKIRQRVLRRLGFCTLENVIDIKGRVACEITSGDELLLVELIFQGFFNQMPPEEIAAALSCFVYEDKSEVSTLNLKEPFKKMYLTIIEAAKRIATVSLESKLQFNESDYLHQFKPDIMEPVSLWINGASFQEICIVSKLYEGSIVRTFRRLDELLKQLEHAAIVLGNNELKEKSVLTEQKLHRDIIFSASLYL

In experiment [2] the target is T2, Red1-3×FLAG (S. pombe) (UniProt Q9UTR8).
T2 sequence: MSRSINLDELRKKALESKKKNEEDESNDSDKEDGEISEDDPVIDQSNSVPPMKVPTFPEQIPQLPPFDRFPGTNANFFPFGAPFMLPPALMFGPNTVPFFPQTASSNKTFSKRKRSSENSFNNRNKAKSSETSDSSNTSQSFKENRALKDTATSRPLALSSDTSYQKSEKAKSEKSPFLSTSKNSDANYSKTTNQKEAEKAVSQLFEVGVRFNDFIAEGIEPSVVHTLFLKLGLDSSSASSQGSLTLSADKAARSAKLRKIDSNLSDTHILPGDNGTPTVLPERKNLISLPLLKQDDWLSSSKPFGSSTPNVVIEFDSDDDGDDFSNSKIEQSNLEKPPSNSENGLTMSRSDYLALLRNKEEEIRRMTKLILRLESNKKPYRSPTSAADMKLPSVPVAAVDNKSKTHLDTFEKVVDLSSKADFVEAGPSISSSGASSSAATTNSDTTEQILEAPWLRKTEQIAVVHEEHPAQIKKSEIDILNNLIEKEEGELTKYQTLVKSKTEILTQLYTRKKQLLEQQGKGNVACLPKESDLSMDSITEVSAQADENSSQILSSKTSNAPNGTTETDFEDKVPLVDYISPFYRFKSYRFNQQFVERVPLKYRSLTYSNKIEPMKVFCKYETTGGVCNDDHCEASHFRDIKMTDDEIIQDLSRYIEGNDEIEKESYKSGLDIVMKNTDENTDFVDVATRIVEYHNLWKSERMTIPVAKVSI

In experiment [3] the target is T3, Ars2-3×FLAG (S. pombe) (UniProt O94326).
T3 sequence: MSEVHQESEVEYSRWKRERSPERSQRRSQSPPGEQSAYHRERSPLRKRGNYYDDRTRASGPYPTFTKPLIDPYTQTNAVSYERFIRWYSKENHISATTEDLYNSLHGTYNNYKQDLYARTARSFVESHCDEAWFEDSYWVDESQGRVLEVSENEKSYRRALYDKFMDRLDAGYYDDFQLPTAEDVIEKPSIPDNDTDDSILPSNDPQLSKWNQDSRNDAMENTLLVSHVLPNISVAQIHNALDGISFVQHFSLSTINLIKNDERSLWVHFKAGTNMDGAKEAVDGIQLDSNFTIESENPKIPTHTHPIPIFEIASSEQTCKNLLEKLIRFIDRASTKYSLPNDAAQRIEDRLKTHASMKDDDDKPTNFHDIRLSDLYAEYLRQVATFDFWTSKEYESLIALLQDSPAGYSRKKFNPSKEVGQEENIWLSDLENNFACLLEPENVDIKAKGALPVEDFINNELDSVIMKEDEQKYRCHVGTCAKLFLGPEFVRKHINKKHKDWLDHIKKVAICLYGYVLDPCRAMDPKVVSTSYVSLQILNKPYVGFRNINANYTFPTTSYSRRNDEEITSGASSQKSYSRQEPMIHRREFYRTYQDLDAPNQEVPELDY

The target in experiment [4] is T4, Rmn1-13×myc (S. pombe) (UniProt Q9USP9).
T4 sequence: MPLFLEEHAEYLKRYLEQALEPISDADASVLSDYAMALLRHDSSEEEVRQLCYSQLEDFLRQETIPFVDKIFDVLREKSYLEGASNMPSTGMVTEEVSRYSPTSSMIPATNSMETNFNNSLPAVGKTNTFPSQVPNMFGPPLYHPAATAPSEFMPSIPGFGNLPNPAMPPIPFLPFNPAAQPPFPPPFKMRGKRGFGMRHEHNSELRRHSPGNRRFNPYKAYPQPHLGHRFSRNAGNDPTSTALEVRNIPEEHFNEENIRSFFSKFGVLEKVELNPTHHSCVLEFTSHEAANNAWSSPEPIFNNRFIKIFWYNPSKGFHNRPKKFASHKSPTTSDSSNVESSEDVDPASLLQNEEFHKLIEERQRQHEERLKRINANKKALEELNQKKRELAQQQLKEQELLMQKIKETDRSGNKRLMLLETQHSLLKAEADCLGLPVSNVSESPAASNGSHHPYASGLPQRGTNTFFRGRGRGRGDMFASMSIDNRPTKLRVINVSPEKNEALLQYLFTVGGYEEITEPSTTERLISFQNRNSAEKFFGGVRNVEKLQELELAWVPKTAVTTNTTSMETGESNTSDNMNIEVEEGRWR

These are yes or no findings as the source states them, for the method shown. In cells and extracts the contact can be indirect. A yes stands for co-enrichment or nearness to the bait. Other partners may have been found. Where a sequence is shown, tags or fusion partners need not be part of it.

B1: Ars2-3×FLAG (protein, UniProt O94326 1-609)
chain: MSEVHQESEVEYSRWKRERSPERSQRRSQSPPGEQSAYHRERSPLRKRGNYYDDRTRASGPYPTFTKPLIDPYTQTNAVSYERFIRWYSKENHISATTEDLYNSLHGTYNNYKQDLYARTARSFVESHCDEAWFEDSYWVDESQGRVLEVSENEKSYRRALYDKFMDRLDAGYYDDFQLPTAEDVIEKPSIPDNDTDDSILPSNDPQLSKWNQDSRNDAMENTLLVSHVLPNISVAQIHNALDGISFVQHFSLSTINLIKNDERSLWVHFKAGTNMDGAKEAVDGIQLDSNFTIESENPKIPTHTHPIPIFEIASSEQTCKNLLEKLIRFIDRASTKYSLPNDAAQRIEDRLKTHASMKDDDDKPTNFHDIRLSDLYAEYLRQVATFDFWTSKEYESLIALLQDSPAGYSRKKFNPSKEVGQEENIWLSDLENNFACLLEPENVDIKAKGALPVEDFINNELDSVIMKEDEQKYRCHVGTCAKLFLGPEFVRKHINKKHKDWLDHIKKVAICLYGYVLDPCRAMDPKVVSTSYVSLQILNKPYVGFRNINANYTFPTTSYSRRNDEEITSGASSQKSYSRQEPMIHRREFYRTYQDLDAPNQEVPELDY
B1: the binding entry in experiment [1] and in experiment [2] was “binds” each time.

B2: Mmi1 (protein, UniProt O74958 1-488)
chain: MSNTNFSTSRSSKSIPELPNLEALRSLWPPPSLNESGDTRSVWTTHTGEPVASSVLSTSGSNNFSSPLKRPAPESHDAPIGRRLMVDDPRLIKHGKYDFSRHCTDYGHSYEWPYFRSLRRESMLYHTSGSYPESQPPYSSYSTDAPHYYHAGSESSAYYDSRSRLHGIQPPPKRRTLSPPPRRLADPVVVGSSRYVEEEVYRRPPYTLASEVPSSASAYQAGYSSYPVRSSPQLSHEDTRHGIASSGSTRYPFVPANTRASHSPSLLEPYAHSLPSSVAPVGAYPEKSSYLLSNSSNDSASRKEKPKARASTPPPLNFSRASEHRNEKGERISMINPRVVLDENGISHRSRYFIMLCDNETAIAHAKKTSIWAVKKDSSKRISDAYKKASVYFIFVAQQTYNALGYAQVVSDLNSTELPFWSDSSHAGGVRIKWIKTCNLFSAEISEIVSHMDHGSEARDGMEMMYDEGSRLCTLINYAIMKRIGRDR
For B2, the binding result in experiment [3], in experiment [1] and in experiment [4] was “binds” each time.

B3: Cbc2 (protein, UniProt Q9P383 1-182)
chain: MASITRLDAVSPYLIRRFKNDLRALDAVKQSNCVYVGNLSFYTTEEQIYALFSKCGEIRRIIMGVDRFTKTPCGFCFVEYFENQDALDSLKYISRTSLDERIIRADLDHGYEEGRQYGRGASGGQVRDEMREEFDPGRGGYAKNRQPTSSRQLANYSGISSAPLGSSLELQSNPRYNRWKKN
B3: the binding result in experiment [3], in experiment [1] and in experiment [2] was “binds” in each case.

B4: Cbc1 (protein, UniProt O14253 1-780)
chain: MSSYRGSTRPRKRTREGENYGFRPHRGNSQELLAARIKKDITFLADPRGNSVAADDINYVAMSLSREANDPETISTILDCIQTTAFIIPVKIPHLATLIIRASLRVPLILEKAAAYFCLQYFTNLNSFLYYEAKVDLRMLICMSFALQPGTLKPLFSLLADAISKETKPSVWGDNFLRIILINLPYFIAANNDLGKKDFANEILDQCEIYVRHRKSSITLSNPLSIHDNLSEEELDLLYKQLILSRENDFTFPYISQPWKFFESDFVHIVPVSPSIPEWTFQPTPQQNELPSFKRFFELFNNFEIRTTPDASDVAASIFRDISVDVINHLEFNRVEAAQVLTDLDVYFTYKTFALRGTPVNELPNLDPSESRWKAEDIIVEAVLGELLGSQNTTYKPVYYHSLLIECCRIAPKILAPTFGRVIRLMYTMSSDLPLQTLDRFIDWFSHHLSNFNFHWKWNEWIPDVELDDLHPKKVFMRETITRELILSYYTRISDSLPEELRCLLGEQPSGPNFVYENETHPLYQQSSQIIEALRLHKPLEELDIILQSEEIQNSETSAVRLVMSCAYSLGSRSFSHALNVFEKHLNTLKHFSRKSLDSEIEVVDELFSFWKLQPFNAVMWLDKMLNYSIISITSIIEWLIKQDVTIWSRSYTWSLVNTTFNKLAARLRRSVSNKEDSSLINEANEEKEIVTNLLLSALRALISENAENIWVSHWLNLMLKYVESNFLSVKKDTIEEANEPVQENTSEEQEDTKMQPVDAVDEQPSENNQTAADATNEEK
In the case of B4, the binding entry in experiment [3], in experiment [1] and in experiment [2] was “binds” throughout.

The values are drawn from paper PMC4024641.
